No constants are given. Whether binding was seen depends on the method and setting. Binding seen in cells or lysates may run through a third protein. Some results given as binding are weak or reduced against the parent protein; the word gives no strength.
Columns and labels:
[1] = biological target: Enhancer of zeste homologue 2 (EZH2), endogenous (human (endogenous in hDPCs and 293T)) (UniProt Q15910); assay: proximity ligation; anti-EZH2 (goat) and anti-PCNA (mouse) antibodies in fixed hDPCs in S phase
[2] = biological target: FLAG-tagged full-length EZH2 (wild type) (UniProt Q15910); assay: co-IP; 293T cells transfected with FLAG-tagged EZH2, EZH2∆SET or EZH2∆PIP; IP with FLAG antibody, blot for endogenous PCNA; IgG as control
[3] = biological target: Enhancer of zeste homologue 2 (EZH2), endogenous (human (endogenous in hDPCs and 293T)) (UniProt Q15910); assay: co-IP; endogenous EZH2 and PCNA from lysate of hDPCs synchronized at S phase; agarose-immobilized antibodies overnight at 4 °C, IgG as control, western blot

Amino acid sequences for entries named in this document (tags omitted).
UniProt Q15910: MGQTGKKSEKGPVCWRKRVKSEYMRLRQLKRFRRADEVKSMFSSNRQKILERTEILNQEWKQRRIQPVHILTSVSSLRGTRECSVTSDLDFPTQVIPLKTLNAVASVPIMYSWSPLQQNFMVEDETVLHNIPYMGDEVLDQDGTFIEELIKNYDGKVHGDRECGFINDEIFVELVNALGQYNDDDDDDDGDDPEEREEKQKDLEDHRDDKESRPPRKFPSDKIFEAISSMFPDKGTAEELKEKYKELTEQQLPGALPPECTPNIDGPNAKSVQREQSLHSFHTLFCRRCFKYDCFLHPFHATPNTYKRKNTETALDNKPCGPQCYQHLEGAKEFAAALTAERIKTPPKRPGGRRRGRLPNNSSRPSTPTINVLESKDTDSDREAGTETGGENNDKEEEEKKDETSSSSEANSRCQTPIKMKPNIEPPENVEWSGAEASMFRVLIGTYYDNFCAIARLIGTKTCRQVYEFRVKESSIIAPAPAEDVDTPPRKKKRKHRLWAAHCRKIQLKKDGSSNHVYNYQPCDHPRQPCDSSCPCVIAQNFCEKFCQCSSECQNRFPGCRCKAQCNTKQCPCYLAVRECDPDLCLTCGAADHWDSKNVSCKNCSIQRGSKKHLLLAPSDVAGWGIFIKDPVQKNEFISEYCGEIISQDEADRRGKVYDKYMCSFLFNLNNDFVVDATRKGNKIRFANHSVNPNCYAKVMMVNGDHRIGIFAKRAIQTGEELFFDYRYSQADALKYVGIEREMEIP
UniProt P12004: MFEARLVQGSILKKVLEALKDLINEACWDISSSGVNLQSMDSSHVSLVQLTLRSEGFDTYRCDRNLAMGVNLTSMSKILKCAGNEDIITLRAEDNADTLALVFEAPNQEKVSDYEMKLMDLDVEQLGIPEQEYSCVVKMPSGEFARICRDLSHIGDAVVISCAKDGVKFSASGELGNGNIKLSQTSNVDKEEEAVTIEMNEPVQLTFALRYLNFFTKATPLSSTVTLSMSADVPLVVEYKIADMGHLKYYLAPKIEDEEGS

Measured: binding

Proliferating cell nuclear antigen (PCNA), endogenous (from UniProt P12004 1-261)
binds: all assays above
